Source: paper PMC5664587 (Fluids and Barriers of the CNS, 2017)
Where two headings read alike, the source gives them in different places.

What was measured:
[1] = average of all three concentration groups
in vivo = conditions: rat, plasma, intravenous
in vitro = conditions: Sprague-Dawley, rat, brain homogenate; for fraction unbound at 6 h: pH 7.4, average fu,brain, average of all three concentration groups
[2] = in situ rat brain perfusion, 61.7 µM, pH 7.4; cited from earlier work
Pgp = conditions: Caco-2 or Pgp transfected cell lines; cited from earlier work
[3] = rats, intravenous bolus; cited from earlier work
Caco-2 cells = conditions: both A–B and B–A directions; cited from earlier work
[4] = human subjects, cited from earlier work
BBMEC = conditions: bovine BBMEC; cited from earlier work
[5] = system: MDCKII (Madin-Darby canine kidney II cells); conditions: both A–B and B–A directions; cited from earlier work
hBMEC = conditions: human hBMEC; cited from earlier work

SMILES | average fu,brain [1] | fraction unbound (in vivo) | fraction unbound at 6 h (in vitro) | fraction unbound at 6 h, 0.5 µM (in vitro; pH 7.4, fu,brain, incubation concentration 0.5 µM, 6 h, 37 °C) | fraction unbound at 6 h, 1 µM (in vitro; pH 7.4, fu,brain, incubation concentration 1.0 µM, 6 h, 37 °C) | Kin (unidirectional transfer constant into brain) [2] [µL/min/g brain] | Pgp substrate status (Pgp) | time of peak of Cu,brain [3] | Papp (Caco-2 cells) | decrease of AUC ([4]; by apple juice) [%] | decrease of AUC ([4]; by orange juice) [%] | Papp (BBMEC) [×10⁻⁶ cm/s] | Papp [5] | Papp (hBMEC) [×10⁻⁶ cm/s]
CC(C)NC[C@H](O)COc1ccc(CC(N)=O)cc1 [S-atenolol, S-(−)-atenolol] | 0.875 ± 0.067 | ~1 | 0.88 ± 0.07 | 0.74 ± 0.04 | 0.8 ± 0.04 |  |  |  |  |  |  |  |  | 
CC(C)NCC(O)COc1ccc(CC(N)=O)cc1 (stereo not drawn) [atenolol] |  |  | 0.875 ± 0.067 |  |  | 1.8 | not a Pgp substrate | around 10 min | 0.18 × 10^−6 − 11 × 10^−6 cm/s | 81 | 40 | 48.5 | 0.13 × 10^−6 − 0.8 × 10^−6 cm/s | 9.78
